Test results published in publication PMC7819943, “Rice protein-binding microarrays: a tool to detect cis-acting elements near promoter regions in rice”.
This is one part of the list.

target: T1, OsSMF1 (Oryza sativa, UniProt Q6ZLB0 1-436); experiment: protein-binding microarray (RPBM); PBS, 2% BSA, 51.3 ng/ul salmon testes DNA, 50 uM zinc acetate, 200 nM TF, 25 C, 1 h; high values mean tight binding; settings: protein: recombinant; tags: N-terminal polyhistidine and DsRed monomer fusion (pET32a); chain copies: 2; label: CyDye5-dUTP incorporated in the synthesized complementary strand; 3' TTTTT single-stranded linker to array surface; dsDNA, one strand shown
T1 sequence: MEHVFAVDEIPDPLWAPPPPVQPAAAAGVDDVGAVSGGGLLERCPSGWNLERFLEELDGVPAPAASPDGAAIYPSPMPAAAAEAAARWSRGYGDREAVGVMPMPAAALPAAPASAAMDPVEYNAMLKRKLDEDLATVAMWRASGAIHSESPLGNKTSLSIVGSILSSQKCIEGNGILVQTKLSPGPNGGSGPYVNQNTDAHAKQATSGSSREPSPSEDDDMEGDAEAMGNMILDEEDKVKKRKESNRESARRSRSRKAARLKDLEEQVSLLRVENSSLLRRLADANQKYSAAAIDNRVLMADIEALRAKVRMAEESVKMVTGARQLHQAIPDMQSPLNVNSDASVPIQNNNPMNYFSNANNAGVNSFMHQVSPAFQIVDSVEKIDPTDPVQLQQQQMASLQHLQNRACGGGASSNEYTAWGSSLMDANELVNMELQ
Summary of the method: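 The binding signal for each feature is its fluorescence intensity in arbitrary units. An Axon 4000B scanner was used to read a custom Agilent array that had been made double-stranded with Cy5-dUTP primer extension, blocked with 2% BSA, incubated at 25 °C for 1 h with 200 nM protein in PBS, 2% BSA, salmon testes DNA and 50 µM zinc acetate, and washed. The protein was an N-terminal polyhistidine–DsRed transcription factor fusion from E. coli BL21-CodonPlus, purified on Ni–NTA.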

Sequence | binding signal
AGGGACGTGGTCGTACGTGTCCGACGTCCCTGACGATTCACGGAGTCACCTAGTGCAG | 7050 fluorescence intensity (a.u.)
ACTACGTGCACTCGCGACATGATGTGTATGATGCTTAAAACGGAGTCACCTAGTGCAG | 20200 fluorescence intensity (a.u.)
GAGATTGGAAATGATCGAATTGTTCCGGCAGCGTGGCAGCCGGAGTCACCTAGTGCAG | 3360 fluorescence intensity (a.u.)
ATTGAACCCGGGAATGCTGGATCCTCTGTAATCAGACTTGCGGAGTCACCTAGTGCAG | 3370 fluorescence intensity (a.u.)
GGAGGCAGCCACTTATCCCTCTCCTTTCCCTCCCAGATCCCGGAGTCACCTAGTGCAG | 15500 fluorescence intensity (a.u.)
ACCTTCAAATGCAATTTTACAATGGATTTACCTCAAGCTACGGAGTCACCTAGTGCAG | 19200 fluorescence intensity (a.u.)
CGCGGGGTGACGGCGATGGATGACGGCGCGCGGGCGGGGCCGGAGTCACCTAGTGCAG | 3960 fluorescence intensity (a.u.)
CTGCCACGTCTTAACTCGAGTATCTTCCCCTTCCCTTAGGCGGAGTCACCTAGTGCAG | 26700 fluorescence intensity (a.u.)
TTTAGCATTTGCTGTGTCACCTCTCCATAAAATTTGGTTGCGGAGTCACCTAGTGCAG | 8830 fluorescence intensity (a.u.)
CCGGCGGTACGGCCCCGTCATGCTCCTCCGCCTCGGCCATCGGAGTCACCTAGTGCAG | 3370 fluorescence intensity (a.u.)
CGGGAAGTGGACAGCGTGTTGCCTGCGTGGGCGGTGTTGTCGGAGTCACCTAGTGCAG | 4610 fluorescence intensity (a.u.)
GAGTAAAATATTCTGCAGTCGGCACTTTTGTTGTGTCATGCGGAGTCACCTAGTGCAG | 3360 fluorescence intensity (a.u.)
TCTGGGTATCCTCTGTTATGTCATCTTCACCTCCATTTGGCGGAGTCACCTAGTGCAG | 3720 fluorescence intensity (a.u.)
TTATAGATGGTGGTTTTGTTGATGTGGCAGTGTTGATTAGCGGAGTCACCTAGTGCAG | 11200 fluorescence intensity (a.u.)
ACGTGGATAATTAATACTACTACGTGTCTGCATATGCGTACGGAGTCACCTAGTGCAG | 3420 fluorescence intensity (a.u.)
CTGAAAAGGAATCGGCCTACGTCTGACGCATGCATTCTGGCGGAGTCACCTAGTGCAG | 7560 fluorescence intensity (a.u.)
GGGTGGACCACGTGTCGTTGCGTCTTAGTTACCCTTCTACCGGAGTCACCTAGTGCAG | 7980 fluorescence intensity (a.u.)
GCTGCCGCCGTCGCTGTCCCTGCCACCTCAAGGACTCGCCCGGAGTCACCTAGTGCAG | 4830 fluorescence intensity (a.u.)
CCATATGCTGCTCGCATCCACGTATAAGTACACCTCTCCCCGGAGTCACCTAGTGCAG | 5290 fluorescence intensity (a.u.)
TGCAACCATGGTCGTCAGCAATGGATATGGCATAATGCTGCGGAGTCACCTAGTGCAG | 5250 fluorescence intensity (a.u.)
ATTTATACAACAACCAGTGACTCATCAATTATCGCGGTGGCGGAGTCACCTAGTGCAG | 16900 fluorescence intensity (a.u.)

Look-ups from the entries so far:
Under binding signal, ACCTTCAAATGCAATTTTACAATGGATTTACCTCAAGCTACGGAGTCACCTAGTGCAG reads 19200 fluorescence intensity (a.u.)
Under binding signal, CCGGCGGTACGGCCCCGTCATGCTCCTCCGCCTCGGCCATCGGAGTCACCTAGTGCAG reads 3370 fluorescence intensity (a.u.)
Under binding signal, TTTAGCATTTGCTGTGTCACCTCTCCATAAAATTTGGTTGCGGAGTCACCTAGTGCAG reads 8830 fluorescence intensity (a.u.)

Remaining list, next part.

Sequence | binding signal
ACTCCTAAATTTAGCTCCAGGAGTTAGTCTGGAGTAGAGTCGGAGTCACCTAGTGCAG | 3280 fluorescence intensity (a.u.)
CACCAAACGACATTCGTGCGGCGCAGGTGGAGTGGACGGACGGAGTCACCTAGTGCAG | 3140 fluorescence intensity (a.u.)
CCAGCGAGACGTTCGATCGTTCGGTTGTCTACGTGGCAATCGGAGTCACCTAGTGCAG | 13700 fluorescence intensity (a.u.)
CTGGAGCGGGCGGCCACGGTCACGCCACGTCAGCTTCCATCGGAGTCACCTAGTGCAG | 42100 fluorescence intensity (a.u.)
CCACAACCTCTCTCACCACCCTGTCATCTGCACCACTGTCCGGAGTCACCTAGTGCAG | 4300 fluorescence intensity (a.u.)
TACTTTATTTTGATTTTCGTGGGAGGTGACGTGGGCGCTTCGGAGTCACCTAGTGCAG | 19300 fluorescence intensity (a.u.)
TCCACATGTCTATCTTACATATTTTCTTGGTTCCTGTGCTCGGAGTCACCTAGTGCAG | 3440 fluorescence intensity (a.u.)
TTGGCTGATGTGACGCCTACGTGGCTGGTTTGACTTGGTCCGGAGTCACCTAGTGCAG | 23300 fluorescence intensity (a.u.)
TTGTTCTGTCGATCCATCGGTATCCTGGTCAATTGGCAAGCGGAGTCACCTAGTGCAG | 3160 fluorescence intensity (a.u.)
GCCAAACAATGACCCTGATTTCGTGTCGTGGTTTTATATCCGGAGTCACCTAGTGCAG | 3850 fluorescence intensity (a.u.)
TACTGGAACAACAGATAGCATGATGACTACACAGTACACACGGAGTCACCTAGTGCAG | 3160 fluorescence intensity (a.u.)
CATCACAACACCTAAAAGACATGCCGTGATGCTAGAACAGCGGAGTCACCTAGTGCAG | 33100 fluorescence intensity (a.u.)
AGATTCATAATACTAGGTTGAGTCACATACTCAAGAGTCACGGAGTCACCTAGTGCAG | 7190 fluorescence intensity (a.u.)
CATTCAGTTCTTTGACAGTAGACTATATCTGGGTGTAGCACGGAGTCACCTAGTGCAG | 3200 fluorescence intensity (a.u.)
AAGAAATGGGCCGGAACGGACAGTTGGACGTGGAAGGCCCCGGAGTCACCTAGTGCAG | 3420 fluorescence intensity (a.u.)
AAATCCGGCCCAGCTTTGTGCTGACACTGACATGCGGGGCCGGAGTCACCTAGTGCAG | 4640 fluorescence intensity (a.u.)
AAAGTGACCCACGGTGACGCGGCAATAAAACGTCGAGGGCCGGAGTCACCTAGTGCAG | 10000 fluorescence intensity (a.u.)
GGTCCTGCGGCCGCTGGCCTTGCTCGAGGACACGCTCCGGCGGAGTCACCTAGTGCAG | 3160 fluorescence intensity (a.u.)
TCAACTCAACTCATCAAGATATCATCATCATCAGAGAGGTCGGAGTCACCTAGTGCAG | 4500 fluorescence intensity (a.u.)
AAATGTACTTAATCACAGCCGGTGACTGACACGTTGGGTCCGGAGTCACCTAGTGCAG | 6700 fluorescence intensity (a.u.)
CTCCAAGGGCCGGTTGTTGGTGTCATCAATCTGCTCCGCACGGAGTCACCTAGTGCAG | 5750 fluorescence intensity (a.u.)
